From PMC6349404
Results are given in words; binding and its absence hold for the method and conditions named. For part of these data: In cells and extracts the contact can be indirect. Some entries that bind do so weakly or less than the wild type. For part of these data: Sequences can lack the tags named with a protein.

By UniProt entry, the sequences of proteins in these tests, tags left out. Where a name states a change or a piece, a line headed by the entry shows the natural chain unless it says otherwise. Residues count along the entry.
UniProt P02769, residues 25-607: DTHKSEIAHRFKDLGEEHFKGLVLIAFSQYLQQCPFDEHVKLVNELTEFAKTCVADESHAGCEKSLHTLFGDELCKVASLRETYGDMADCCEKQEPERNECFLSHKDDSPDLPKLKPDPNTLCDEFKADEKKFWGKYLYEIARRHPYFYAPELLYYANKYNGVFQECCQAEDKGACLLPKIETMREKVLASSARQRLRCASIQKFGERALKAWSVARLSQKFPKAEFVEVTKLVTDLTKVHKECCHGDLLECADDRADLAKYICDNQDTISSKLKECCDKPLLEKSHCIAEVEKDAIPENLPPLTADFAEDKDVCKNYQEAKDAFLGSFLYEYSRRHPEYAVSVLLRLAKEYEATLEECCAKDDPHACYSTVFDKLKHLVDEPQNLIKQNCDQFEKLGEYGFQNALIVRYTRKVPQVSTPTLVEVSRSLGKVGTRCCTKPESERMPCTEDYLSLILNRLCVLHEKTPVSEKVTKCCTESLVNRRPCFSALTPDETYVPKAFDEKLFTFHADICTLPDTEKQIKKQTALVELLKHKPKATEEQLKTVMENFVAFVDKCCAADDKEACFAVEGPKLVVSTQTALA
UniProt Q9UKX5: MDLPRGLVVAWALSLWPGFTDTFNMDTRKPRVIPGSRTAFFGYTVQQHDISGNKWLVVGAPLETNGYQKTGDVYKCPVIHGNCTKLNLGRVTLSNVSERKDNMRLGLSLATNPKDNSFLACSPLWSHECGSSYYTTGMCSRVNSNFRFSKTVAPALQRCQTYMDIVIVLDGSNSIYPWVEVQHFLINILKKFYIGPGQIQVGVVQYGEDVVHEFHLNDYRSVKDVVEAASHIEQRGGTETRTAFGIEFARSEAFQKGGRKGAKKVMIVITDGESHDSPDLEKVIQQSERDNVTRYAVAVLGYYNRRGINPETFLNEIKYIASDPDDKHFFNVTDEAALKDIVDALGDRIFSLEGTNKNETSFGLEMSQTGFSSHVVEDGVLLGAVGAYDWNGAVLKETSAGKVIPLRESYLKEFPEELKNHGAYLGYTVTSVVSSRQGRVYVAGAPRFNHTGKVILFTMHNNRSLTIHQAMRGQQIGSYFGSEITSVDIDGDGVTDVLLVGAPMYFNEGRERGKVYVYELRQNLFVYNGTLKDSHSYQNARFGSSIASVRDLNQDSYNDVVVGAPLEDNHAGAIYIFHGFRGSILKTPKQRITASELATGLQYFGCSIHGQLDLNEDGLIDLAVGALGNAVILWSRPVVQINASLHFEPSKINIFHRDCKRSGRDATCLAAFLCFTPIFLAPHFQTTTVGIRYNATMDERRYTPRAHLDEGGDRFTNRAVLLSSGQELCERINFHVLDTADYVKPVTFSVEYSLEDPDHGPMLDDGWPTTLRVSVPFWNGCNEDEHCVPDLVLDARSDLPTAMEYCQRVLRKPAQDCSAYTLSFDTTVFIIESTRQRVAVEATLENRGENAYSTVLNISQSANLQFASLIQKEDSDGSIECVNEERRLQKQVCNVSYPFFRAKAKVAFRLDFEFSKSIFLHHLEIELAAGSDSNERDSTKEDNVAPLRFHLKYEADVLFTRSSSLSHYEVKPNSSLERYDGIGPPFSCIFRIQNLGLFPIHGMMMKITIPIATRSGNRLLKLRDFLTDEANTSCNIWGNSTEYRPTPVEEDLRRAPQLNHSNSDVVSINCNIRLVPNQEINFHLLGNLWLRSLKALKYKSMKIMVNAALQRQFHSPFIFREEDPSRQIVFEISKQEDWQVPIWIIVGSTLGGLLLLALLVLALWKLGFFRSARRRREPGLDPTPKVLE
UniProt P61622: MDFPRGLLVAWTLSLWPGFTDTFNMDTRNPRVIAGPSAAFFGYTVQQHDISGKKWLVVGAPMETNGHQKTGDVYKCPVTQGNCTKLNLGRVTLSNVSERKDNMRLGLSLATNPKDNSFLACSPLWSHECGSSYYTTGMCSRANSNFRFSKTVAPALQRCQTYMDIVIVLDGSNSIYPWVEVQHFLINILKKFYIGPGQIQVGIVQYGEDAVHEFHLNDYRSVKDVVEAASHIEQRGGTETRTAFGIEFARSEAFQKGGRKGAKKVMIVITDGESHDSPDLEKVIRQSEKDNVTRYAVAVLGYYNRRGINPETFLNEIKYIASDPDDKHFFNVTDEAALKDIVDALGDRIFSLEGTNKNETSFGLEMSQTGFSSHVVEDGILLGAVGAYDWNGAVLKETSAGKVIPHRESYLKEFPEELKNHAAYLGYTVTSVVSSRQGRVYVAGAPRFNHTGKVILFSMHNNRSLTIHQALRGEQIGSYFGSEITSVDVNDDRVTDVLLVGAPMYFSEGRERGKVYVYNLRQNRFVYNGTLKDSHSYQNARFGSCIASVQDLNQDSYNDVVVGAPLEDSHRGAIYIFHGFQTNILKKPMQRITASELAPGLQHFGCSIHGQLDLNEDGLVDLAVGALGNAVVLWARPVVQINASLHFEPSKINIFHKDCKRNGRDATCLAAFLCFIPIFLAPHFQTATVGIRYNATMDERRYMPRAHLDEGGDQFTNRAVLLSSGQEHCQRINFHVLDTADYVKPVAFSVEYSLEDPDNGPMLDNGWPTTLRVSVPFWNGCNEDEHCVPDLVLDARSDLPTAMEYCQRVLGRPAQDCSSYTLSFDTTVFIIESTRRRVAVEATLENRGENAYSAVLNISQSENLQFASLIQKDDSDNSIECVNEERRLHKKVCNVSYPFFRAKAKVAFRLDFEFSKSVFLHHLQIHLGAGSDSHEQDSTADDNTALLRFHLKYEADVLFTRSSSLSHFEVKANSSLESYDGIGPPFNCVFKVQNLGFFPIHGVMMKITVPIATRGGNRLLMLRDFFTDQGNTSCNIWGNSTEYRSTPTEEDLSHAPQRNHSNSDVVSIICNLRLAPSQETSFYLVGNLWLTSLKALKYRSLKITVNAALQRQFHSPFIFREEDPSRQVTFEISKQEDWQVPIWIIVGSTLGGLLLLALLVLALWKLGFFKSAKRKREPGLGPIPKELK

Experiments:
[1] = molecular target: T1, recombinant human Osteolectin (human) (UniProt Q9Y240); experiment: ELISA; microtiter well binding assay of integrin α11β1 on coated recombinant human Osteolectin in the presence of 200 nM RGDS peptide; both purified
T1 sequence: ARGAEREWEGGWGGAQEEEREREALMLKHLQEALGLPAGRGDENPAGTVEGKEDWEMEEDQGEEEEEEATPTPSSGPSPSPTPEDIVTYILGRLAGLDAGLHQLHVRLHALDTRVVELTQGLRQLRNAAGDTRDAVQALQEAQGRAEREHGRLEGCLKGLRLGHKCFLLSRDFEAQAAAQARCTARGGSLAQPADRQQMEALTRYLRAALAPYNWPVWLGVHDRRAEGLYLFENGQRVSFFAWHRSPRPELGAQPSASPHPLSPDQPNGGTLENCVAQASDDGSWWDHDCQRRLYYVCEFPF

[2] = molecular target: Bovine serum albumin (bovine) (UniProt P02769); experiment: ELISA; microtiter well binding assay; plates coated with 10 nM recombinant human Osteolectin, Pro-Collagen 1α or BSA overnight at 4°C, blocked with 10 mg/ml BSA; 6xHis tagged integrins in TBS (50 mM Tris-Cl pH 7.5, 150 mM NaCl) with 1 mM MnCl2; bound integrin detected with anti-His tag antibody and HRP secondary, OD 450 nm; both purified
[3] = molecular target: T2, Flag-tagged human Osteolectin expressed in MC3T3-E1 cells (human) (UniProt Q9Y240); experiment: co-IP; Flag-tagged human Osteolectin overexpressed in MC3T3-E1 cells for 48 hr; lysate (50 mM Tris-HCl, 150 mM NaCl, 1% NP-40, 0.5% sodium deoxycholate, 0.1% SDS) precipitated with anti-FLAG M2 Affinity Gel 2 hr at 4°C, washed six times; western blot for endogenous integrins
T2 sequence: T1 sequence

binding [1] | binding [2] | binding [3] | Substance
binds | no binding | – | recombinant human integrin α11β1 (from UniProt Q9UKX5 23-1141; P05556 21-728) (complex)
– | – | binds | endogenous integrin α11β1 of MC3T3-E1 cells (from UniProt P61622 23-1188; P09055 21-798) (complex)
